Source: the supplement of paper PMC10849652
Some of the results follow.

By UniProt entry, the sequences of proteins in these tests, tags left out. Where a name states a change or a piece, a line headed by the entry shows the natural chain unless it says otherwise.
UniProt Q9UJK0: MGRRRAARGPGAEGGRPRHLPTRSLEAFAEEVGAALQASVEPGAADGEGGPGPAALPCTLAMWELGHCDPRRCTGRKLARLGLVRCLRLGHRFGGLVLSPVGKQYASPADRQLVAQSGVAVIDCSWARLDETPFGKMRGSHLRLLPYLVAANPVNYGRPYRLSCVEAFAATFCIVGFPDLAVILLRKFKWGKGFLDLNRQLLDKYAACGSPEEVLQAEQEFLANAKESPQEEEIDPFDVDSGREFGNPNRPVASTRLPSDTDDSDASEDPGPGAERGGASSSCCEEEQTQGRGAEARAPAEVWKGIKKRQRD
UniProt P36406: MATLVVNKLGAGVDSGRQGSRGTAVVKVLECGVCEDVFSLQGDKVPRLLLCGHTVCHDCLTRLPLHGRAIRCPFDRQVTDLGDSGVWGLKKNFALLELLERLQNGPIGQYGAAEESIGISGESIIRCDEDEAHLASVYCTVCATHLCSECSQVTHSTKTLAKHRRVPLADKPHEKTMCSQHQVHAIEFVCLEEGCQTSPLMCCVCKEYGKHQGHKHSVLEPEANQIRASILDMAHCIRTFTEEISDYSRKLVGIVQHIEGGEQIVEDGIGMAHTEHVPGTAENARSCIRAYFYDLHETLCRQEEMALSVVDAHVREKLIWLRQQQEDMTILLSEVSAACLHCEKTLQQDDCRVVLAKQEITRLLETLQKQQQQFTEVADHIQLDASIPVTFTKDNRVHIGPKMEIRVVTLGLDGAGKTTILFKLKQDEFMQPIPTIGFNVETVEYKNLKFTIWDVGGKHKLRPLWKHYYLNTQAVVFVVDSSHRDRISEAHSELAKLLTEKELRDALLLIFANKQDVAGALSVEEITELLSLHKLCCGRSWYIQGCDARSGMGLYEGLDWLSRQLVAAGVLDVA
UniProt Q7Z392: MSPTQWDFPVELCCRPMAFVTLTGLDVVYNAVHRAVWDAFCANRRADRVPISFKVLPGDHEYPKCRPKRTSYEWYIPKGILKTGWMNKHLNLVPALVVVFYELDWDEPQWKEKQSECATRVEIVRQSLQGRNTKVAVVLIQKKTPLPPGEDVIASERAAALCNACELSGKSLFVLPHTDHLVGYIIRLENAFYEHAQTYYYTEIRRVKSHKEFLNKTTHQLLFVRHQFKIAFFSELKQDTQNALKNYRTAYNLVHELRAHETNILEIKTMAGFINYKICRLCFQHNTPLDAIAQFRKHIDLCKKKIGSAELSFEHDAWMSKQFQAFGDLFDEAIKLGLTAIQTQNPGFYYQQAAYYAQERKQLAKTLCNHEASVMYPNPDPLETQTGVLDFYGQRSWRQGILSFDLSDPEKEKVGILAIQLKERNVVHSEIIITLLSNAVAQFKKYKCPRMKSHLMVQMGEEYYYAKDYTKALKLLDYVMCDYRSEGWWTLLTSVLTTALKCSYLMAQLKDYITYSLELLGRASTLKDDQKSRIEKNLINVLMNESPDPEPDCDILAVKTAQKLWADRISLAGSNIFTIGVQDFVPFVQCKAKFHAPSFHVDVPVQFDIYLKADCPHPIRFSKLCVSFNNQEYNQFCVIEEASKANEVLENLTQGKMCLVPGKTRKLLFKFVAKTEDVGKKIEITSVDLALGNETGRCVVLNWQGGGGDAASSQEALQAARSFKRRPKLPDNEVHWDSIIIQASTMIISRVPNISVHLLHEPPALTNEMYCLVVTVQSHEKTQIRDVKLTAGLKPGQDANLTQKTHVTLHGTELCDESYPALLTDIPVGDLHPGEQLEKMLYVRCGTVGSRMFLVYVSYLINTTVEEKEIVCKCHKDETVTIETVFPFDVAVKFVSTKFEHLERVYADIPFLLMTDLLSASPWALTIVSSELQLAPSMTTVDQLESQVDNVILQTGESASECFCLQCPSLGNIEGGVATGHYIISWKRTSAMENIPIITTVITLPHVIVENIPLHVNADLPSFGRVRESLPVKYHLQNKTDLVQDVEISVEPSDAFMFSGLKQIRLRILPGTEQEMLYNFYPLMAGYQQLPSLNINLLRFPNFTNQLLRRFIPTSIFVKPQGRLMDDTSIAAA
UniProt Q14166: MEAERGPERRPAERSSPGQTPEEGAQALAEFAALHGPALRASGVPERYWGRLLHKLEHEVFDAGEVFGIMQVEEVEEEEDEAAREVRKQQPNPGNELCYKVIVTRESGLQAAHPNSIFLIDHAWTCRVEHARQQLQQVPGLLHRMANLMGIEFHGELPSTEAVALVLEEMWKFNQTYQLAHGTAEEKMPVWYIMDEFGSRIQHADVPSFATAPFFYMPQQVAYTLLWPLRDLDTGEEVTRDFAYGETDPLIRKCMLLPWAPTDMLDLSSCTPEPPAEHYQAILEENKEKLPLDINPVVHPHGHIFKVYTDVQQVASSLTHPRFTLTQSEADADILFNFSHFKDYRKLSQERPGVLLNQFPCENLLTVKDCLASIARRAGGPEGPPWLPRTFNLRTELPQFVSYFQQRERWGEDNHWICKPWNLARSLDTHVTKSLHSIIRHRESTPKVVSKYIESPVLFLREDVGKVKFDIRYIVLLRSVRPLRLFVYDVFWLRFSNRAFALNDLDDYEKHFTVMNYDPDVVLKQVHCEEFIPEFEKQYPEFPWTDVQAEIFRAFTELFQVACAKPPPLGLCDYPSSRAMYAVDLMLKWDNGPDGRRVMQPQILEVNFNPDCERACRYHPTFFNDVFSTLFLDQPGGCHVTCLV
UniProt P43897: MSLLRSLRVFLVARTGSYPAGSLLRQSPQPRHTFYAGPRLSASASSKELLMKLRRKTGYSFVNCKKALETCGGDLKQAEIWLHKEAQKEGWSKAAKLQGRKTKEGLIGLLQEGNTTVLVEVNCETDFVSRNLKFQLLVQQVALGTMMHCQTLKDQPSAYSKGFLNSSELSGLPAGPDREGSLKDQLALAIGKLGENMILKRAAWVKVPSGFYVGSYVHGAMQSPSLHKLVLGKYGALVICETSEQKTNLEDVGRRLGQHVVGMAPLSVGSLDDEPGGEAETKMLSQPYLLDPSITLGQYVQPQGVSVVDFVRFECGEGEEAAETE
UniProt Q9BRZ2: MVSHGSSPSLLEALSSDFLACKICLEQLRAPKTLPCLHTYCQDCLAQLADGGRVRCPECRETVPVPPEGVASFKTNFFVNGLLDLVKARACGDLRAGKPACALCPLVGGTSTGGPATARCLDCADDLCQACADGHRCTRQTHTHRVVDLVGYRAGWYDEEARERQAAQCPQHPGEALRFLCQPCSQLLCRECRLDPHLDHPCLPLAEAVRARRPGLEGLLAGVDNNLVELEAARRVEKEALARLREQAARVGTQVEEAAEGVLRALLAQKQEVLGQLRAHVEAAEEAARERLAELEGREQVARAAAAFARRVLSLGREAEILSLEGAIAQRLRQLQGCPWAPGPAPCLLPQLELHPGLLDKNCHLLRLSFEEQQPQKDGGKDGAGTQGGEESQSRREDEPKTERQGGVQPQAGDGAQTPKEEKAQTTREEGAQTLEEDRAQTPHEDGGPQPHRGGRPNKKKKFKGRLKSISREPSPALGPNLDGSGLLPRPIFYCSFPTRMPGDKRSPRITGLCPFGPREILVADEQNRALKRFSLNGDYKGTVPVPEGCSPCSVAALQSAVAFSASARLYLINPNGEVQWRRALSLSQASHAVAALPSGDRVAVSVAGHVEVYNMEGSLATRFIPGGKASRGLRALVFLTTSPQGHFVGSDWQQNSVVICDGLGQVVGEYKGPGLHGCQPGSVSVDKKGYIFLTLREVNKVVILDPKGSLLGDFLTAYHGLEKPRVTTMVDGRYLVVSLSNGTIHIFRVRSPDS
UniProt Q9UNY4: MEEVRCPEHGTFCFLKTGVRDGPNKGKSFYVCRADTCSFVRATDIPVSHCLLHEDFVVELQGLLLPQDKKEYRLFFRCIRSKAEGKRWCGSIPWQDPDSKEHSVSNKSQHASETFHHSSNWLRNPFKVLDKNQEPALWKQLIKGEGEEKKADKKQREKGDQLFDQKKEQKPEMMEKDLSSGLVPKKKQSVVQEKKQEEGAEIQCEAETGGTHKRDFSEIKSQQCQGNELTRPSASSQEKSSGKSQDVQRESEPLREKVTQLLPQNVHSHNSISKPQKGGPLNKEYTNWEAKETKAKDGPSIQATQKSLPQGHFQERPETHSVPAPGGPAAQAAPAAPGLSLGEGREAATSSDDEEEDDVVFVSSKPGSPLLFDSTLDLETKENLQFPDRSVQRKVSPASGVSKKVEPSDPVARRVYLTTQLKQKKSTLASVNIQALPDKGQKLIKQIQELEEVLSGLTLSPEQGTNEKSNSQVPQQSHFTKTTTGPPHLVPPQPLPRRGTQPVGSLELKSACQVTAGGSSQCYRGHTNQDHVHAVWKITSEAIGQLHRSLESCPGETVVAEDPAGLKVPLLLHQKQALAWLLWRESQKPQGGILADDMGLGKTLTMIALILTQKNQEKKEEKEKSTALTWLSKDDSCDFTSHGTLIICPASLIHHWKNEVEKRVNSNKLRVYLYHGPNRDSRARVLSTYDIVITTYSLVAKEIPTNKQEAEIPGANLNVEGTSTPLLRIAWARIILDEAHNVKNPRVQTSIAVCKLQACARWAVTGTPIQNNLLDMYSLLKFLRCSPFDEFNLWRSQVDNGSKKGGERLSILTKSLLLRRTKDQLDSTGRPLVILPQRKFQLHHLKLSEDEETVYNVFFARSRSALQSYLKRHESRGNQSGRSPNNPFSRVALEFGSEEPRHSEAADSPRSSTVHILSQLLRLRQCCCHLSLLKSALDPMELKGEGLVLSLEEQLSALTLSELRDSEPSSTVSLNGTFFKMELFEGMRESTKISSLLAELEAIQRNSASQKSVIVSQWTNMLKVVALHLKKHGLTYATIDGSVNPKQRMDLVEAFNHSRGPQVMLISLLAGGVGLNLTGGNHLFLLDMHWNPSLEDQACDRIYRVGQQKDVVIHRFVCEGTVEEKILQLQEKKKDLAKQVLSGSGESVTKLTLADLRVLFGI
UniProt Q8NCE0: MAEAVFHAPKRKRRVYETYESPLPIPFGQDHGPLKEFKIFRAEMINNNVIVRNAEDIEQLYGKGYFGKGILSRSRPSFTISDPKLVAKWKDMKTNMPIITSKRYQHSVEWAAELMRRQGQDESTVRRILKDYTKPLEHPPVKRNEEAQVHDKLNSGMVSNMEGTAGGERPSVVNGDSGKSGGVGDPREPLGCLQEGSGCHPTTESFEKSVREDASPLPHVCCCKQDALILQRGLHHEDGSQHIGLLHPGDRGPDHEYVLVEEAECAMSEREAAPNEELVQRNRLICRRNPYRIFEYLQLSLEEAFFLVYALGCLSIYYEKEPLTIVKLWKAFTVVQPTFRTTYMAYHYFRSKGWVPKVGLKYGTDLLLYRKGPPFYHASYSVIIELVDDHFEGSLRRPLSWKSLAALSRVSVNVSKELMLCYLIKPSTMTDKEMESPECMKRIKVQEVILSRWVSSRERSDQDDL
UniProt Q8WWH5: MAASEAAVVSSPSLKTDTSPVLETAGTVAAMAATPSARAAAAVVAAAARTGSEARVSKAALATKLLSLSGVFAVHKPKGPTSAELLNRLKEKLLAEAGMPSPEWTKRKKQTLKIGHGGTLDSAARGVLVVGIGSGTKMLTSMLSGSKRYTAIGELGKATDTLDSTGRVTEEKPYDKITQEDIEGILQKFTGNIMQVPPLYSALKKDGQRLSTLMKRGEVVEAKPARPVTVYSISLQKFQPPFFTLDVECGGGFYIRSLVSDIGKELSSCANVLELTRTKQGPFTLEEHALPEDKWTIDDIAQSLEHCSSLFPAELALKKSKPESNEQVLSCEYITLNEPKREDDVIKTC
UniProt Q16762: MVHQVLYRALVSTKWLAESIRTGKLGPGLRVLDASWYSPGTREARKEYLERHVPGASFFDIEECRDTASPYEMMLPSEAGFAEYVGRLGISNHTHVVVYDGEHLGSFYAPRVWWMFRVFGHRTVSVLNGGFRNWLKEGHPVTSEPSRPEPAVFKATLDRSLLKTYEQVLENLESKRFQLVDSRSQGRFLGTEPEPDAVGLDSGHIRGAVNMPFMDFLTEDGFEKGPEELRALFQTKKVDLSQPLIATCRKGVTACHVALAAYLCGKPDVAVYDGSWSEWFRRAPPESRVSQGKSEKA
UniProt Q8TBZ6: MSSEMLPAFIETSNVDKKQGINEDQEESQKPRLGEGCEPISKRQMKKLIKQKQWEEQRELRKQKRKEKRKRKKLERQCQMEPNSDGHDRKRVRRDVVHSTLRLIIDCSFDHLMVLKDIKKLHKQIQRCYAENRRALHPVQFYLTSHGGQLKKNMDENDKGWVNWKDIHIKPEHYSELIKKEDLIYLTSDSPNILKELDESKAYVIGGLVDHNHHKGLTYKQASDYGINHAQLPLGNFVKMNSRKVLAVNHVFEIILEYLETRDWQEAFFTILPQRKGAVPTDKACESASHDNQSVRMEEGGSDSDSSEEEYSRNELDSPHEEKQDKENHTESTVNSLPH
UniProt Q969E8: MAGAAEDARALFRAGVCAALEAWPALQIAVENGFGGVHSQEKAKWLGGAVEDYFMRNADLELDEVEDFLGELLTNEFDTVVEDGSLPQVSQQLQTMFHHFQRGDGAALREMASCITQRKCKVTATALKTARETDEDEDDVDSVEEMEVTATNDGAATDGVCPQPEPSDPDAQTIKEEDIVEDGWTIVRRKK

Columns and labels:
Assay in all cases: log2 fold change, soluble protein after heating vs DMSO (PISA); higher = thermal stabilisation; K562 lysate, 10 uM; active = over 0.2 and 3.5 SD of the protein, either way, in both replicates (recomputed)
alvocidib = compound: CN1CC[C@H](c2c(O)cc(O)c3c(=O)cc(-c4ccccc4Cl)oc23)[C@H](O)C1 [alvocidib]
Method in brief: (§1)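 Log-two fold change in thermal stability relative to solvent controls is reported from duplicates. For each sample, crude K562 extract from dounce-homogenised pellets in PBS pH 7.4 with 1 mM MgCl2, at 1 mg/mL protein, was treated with 10 μM compound for 30 min. Aliquots heated for 3 min across 48°C-58°C were pooled, brought to 0.5% NP-40 at 4°C and cleared at 21,000xg for 90 min. The supernatant was quantified by TMTpro 16plex LC-MS/MS with channel sums equalised.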

Tubastatin A = compound: CN1CCc2c(c3ccccc3n2Cc2ccc(C(=O)NO)cc2)C1 [Tubastatin A]
Method in brief: as §1

[1] = compound: CNC(=O)C1=CC=CC=C1NC2=NC(=NC=C2Cl)NC3=C(C=C(C=C3)N4CCOCC4)OC
Method in brief: as §1

defactinib = compound: CNC(=O)c1ccc(Nc2ncc(C(F)(F)F)c(NCc3nccnc3N(C)S(C)(=O)=O)n2)cc1 [defactinib]
Method in brief: as §1

[2] = compound: CNc1nc(-c2ccc3c(N)n[nH]c3c2)cc(N2C[C@@H](C(=O)NC3CCCCC3)CC[C@H]2C)n1
Method in brief: as §1

encorafenib = compound: COC(=O)N[C@@H](C)CNc1nccc(-c2cn(C(C)C)nc2-c2cc(Cl)cc(NS(C)(=O)=O)c2F)n1 [encorafenib]
Method in brief: as §1

[3] = compound: COC(=O)[C@H](CCSC)NC(=O)C1=C(C=C(C=C1)NC[C@H](CS)N)C2=CC=CC=C2
Method in brief: as §1

alisertib = compound: COc1cc(Nc2ncc3c(n2)-c2ccc(Cl)cc2C(c2c(F)cccc2OC)=NC3)ccc1C(=O)O [alisertib]
Method in brief: as §1

[4] = compound: COc1cc2nc(-c3cc(F)ccc3O)nc(N[C@@H]3CNC[C@H]3C(C)(C)O)c2cc1OC
Method in brief: as §1

gefitinib = compound: COc1cc2ncnc(Nc3ccc(F)c(Cl)c3)c2cc1OCCCN1CCOCC1 [gefitinib]
Method in brief: as §1

lapatinib = compound: CS(=O)(=O)CCNCc1ccc(-c2ccc3ncnc(Nc4ccc(OCc5cccc(F)c5)c(Cl)c4)c3c2)o1 [lapatinib]
Method in brief: as §1

pictilisib = compound: CS(=O)(=O)N1CCN(Cc2cc3nc(-c4cccc5[nH]ncc45)nc(N4CCOCC4)c3s2)CC1 [pictilisib]
Method in brief: as §1

crizotinib = compound: C[C@@H](Oc1cc(-c2cnn(C3CCNCC3)c2)cnc1N)c1c(Cl)ccc(F)c1Cl [crizotinib]
Method in brief: as §1

[5] = compound: C[C@H](C1=CC=C(C=C1)C(=O)NC2=C3C=CNC3=NC=C2)N
Method in brief: as §1

duvelisib = compound: C[C@H](Nc1ncnc2nc[nH]c12)c1cc2cccc(Cl)c2c(=O)n1-c1ccccc1 [duvelisib]
Method in brief: as §1

gandotinib = compound: Cc1cc(Nc2cc(CN3CCOCC3)c3nc(C)c(Cc4ccc(Cl)cc4F)n3n2)n[nH]1 [gandotinib]
Method in brief: as §1

tozasertib = compound: Cc1cc(Nc2cc(N3CCN(C)CC3)nc(Sc3ccc(NC(=O)C4CC4)cc3)n2)n[nH]1 [tozasertib]
Method in brief: as §1

doramapimod = compound: Cc1ccc(-n2nc(C(C)(C)C)cc2NC(=O)Nc2ccc(OCCN3CCOCC3)c3ccccc23)cc1 [doramapimod]
Method in brief: as §1

bafetinib = compound: Cc1ccc(NC(=O)c2ccc(CN3CC[C@H](N(C)C)C3)c(C(F)(F)F)c2)cc1Nc1nccc(-c2cncnc2)n1 [bafetinib]
Method in brief: as §1

[6] = compound: Cc1cccc(CC(=O)N2CCc3c2ccc(-c2cn(C)c4ncnc(N)c24)c3F)n1
Method in brief: as §1

Target	log2 fold change (alvocidib)	log2 fold change (Tubastatin A)	log2 fold change [1]	log2 fold change (defactinib)	log2 fold change [2]	log2 fold change (encorafenib)	log2 fold change [3]	log2 fold change (alisertib)	log2 fold change [4]	log2 fold change (gefitinib)	log2 fold change (lapatinib)	log2 fold change (pictilisib)	log2 fold change (crizotinib)	log2 fold change [5]	log2 fold change (duvelisib)	log2 fold change (gandotinib)	log2 fold change (tozasertib)	log2 fold change (doramapimod)	log2 fold change (bafetinib)	log2 fold change [6]
TRMT112 (UniProt Q9UI30)	inactive: 0.017	inactive: 0.037	inactive: -0.051	inactive: 0.035	inactive: 0.019	inactive: 0.04	inactive: -0.004	inactive: 0.005	inactive: -0.036	inactive: -0.117	inactive: 0.025	inactive: 0.036	inactive: -0.012	inactive: 0.033	inactive: 0.027	inactive: -0.041	inactive: 0.036	inactive: -0.009	inactive: 0.007	inactive: -0.001
TSR3 (UniProt Q9UJK0)	inactive: -0.016	inactive: 0.042	inactive: 0.013	inactive: 0.006	inactive: 0.103	inactive: 0.005	inactive: -0.186	inactive: -0.005	inactive: 0.01	inactive: -0.046	inactive: 0.007	inactive: 0.015	inactive: -0.068	inactive: -0.011	inactive: 0.045	inactive: 0.058	inactive: -0.013	inactive: 0.011	inactive: -0.067	inactive: 0.003
TTC33 (UniProt Q6PID6)	inactive: 0.043	inactive: -0.038	inactive: 0.1	inactive: -0.041	inactive: -0.024	inactive: 0.034	inactive: 0.036	inactive: -0.054	inactive: 0.001	inactive: -0.399	inactive: 0.028	inactive: -0.067	inactive: -0.021	inactive: 0.065	inactive: -0.005	inactive: -0.13	inactive: 0.024	inactive: 0.028	inactive: -0.029	inactive: 0.011
TRIM23 (UniProt P36406)	inactive: -0.071	inactive: 0.023	inactive: 0.017	inactive: -0.008	inactive: 0.354	inactive: -0.063	inactive: 0.06	inactive: -0.014	inactive: 0.154	inactive: 0.057	inactive: -0.063	inactive: -0.12	inactive: -0.003	inactive: -0.235	inactive: 0.134	active: 0.372	inactive: 0.026	inactive: 0.01	inactive: -0.088	inactive: 0.297
TRAPPC11 (UniProt Q7Z392)	inactive: -0.018	inactive: -0.05	inactive: -0.004	inactive: -0.011	inactive: -0.034	inactive: 0.013	inactive: 0.002	inactive: -0.047	inactive: 0.001	inactive: 0.036	inactive: -0.025	inactive: 0.009	inactive: -0.019	inactive: -0.059	inactive: -0.029	inactive: 0.017	inactive: -0.017	inactive: 0.033	inactive: -0.042	inactive: 0.036
TTLL12 (UniProt Q14166)	inactive: 0.039	inactive: -0.212	inactive: -0.003	inactive: 0.018	inactive: -0.03	inactive: -0.009	inactive: 0.032	inactive: 0	inactive: 0.003	inactive: 0.039	inactive: -0.002	inactive: -0.02	inactive: -0.039	inactive: 0.014	inactive: 0.015	inactive: -0.091	inactive: 0.023	inactive: 0.016	inactive: -0.004	inactive: 0.014
TSFM (UniProt P43897)	inactive: 0.036	inactive: -0.088	inactive: 0.017	inactive: 0.015	inactive: 0.01	inactive: -0.017	inactive: 0.13	inactive: -0.021	inactive: 0.017	inactive: 0.018	inactive: 0.003	inactive: -0.007	inactive: -0.056	inactive: 0.012	inactive: 0.025	inactive: -0.122	inactive: 0.047	inactive: 0.06	inactive: -0.026	inactive: -0.034
TRIM56 (UniProt Q9BRZ2)	inactive: -0.013	inactive: -0.13	inactive: 0.067	inactive: 0.008	inactive: -0.059	inactive: 0.068	inactive: -0.21	inactive: 0.04	inactive: 0.001	inactive: -0.01	inactive: 0.001	inactive: -0.002	inactive: -0.002	inactive: 0.085	inactive: 0.003	inactive: -0.071	inactive: 0	inactive: 0.023	inactive: -0.132	inactive: 0.085
TTF2 (UniProt Q9UNY4)	inactive: -0.018	inactive: -0.055	inactive: 0.05	inactive: 0.069	inactive: 0.005	inactive: -0.018	inactive: -0.01	inactive: 0.005	inactive: 0.056	inactive: 0.002	inactive: 0.028	inactive: -0.048	inactive: -0.104	inactive: -0.052	inactive: 0	inactive: 0	inactive: 0.019	inactive: 0.053	inactive: -0.02	inactive: 0.102
TSEN2 (UniProt Q8NCE0)	inactive: -0.071	inactive: -0.02	inactive: 0.026	inactive: -0.033	inactive: 0.028	inactive: -0.014	inactive: 0.077	inactive: 0.004	inactive: 0.028	inactive: -0.009	inactive: 0.006	inactive: 0.003	inactive: -0.085	inactive: -0.076	inactive: 0.017	inactive: 0.032	inactive: 0.039	inactive: 0.008	inactive: -0.024	inactive: 0.079
TSC2 isoform 4 (UniProt P49815)	inactive: -0.016	inactive: -0.082	inactive: -0.007	inactive: 0.007	inactive: 0.064	inactive: 0.028	inactive: -0.063	inactive: -0.087	inactive: 0.042	inactive: -0.019	inactive: -0.011	inactive: 0.025	inactive: -0.054	inactive: -0.058	inactive: 0.026	inactive: -0.035	inactive: 0.049	inactive: -0.061	inactive: -0.008	inactive: 0.089
TTC4 (UniProt O95801)	inactive: -0.012	inactive: -0.183	inactive: 0.078	inactive: 0.004	inactive: 0.003	inactive: 0.021	inactive: -0.005	inactive: 0.008	inactive: -0.017	inactive: -0.003	inactive: 0.006	inactive: 0.025	inactive: -0.073	inactive: -0.059	inactive: -0.001	inactive: 0.035	inactive: 0.009	inactive: 0.014	inactive: -0.001	inactive: 0.026
TRUB1 (UniProt Q8WWH5)	inactive: 0.018	inactive: -0.012	inactive: 0.037	inactive: -0.017	inactive: 0.002	inactive: -0.015	inactive: 0.08	inactive: 0.02	inactive: -0.103	inactive: -0.063	inactive: -0.117	inactive: -0.015	inactive: -0.029	inactive: -0.089	inactive: 0.018	inactive: 0.043	inactive: 0.005	inactive: 0.049	inactive: -0.046	inactive: 0.039
TST (UniProt Q16762)	inactive: -0.001	inactive: 0.047	inactive: 0.018	inactive: -0.013	inactive: -0.046	inactive: -0.025	inactive: -0.049	inactive: 0.014	inactive: -0.027	inactive: -0.034	inactive: 0.06	inactive: -0.003	inactive: -0.105	inactive: 0.024	inactive: 0.002	inactive: 0.055	inactive: 0.07	inactive: 0.018	inactive: 0.05	inactive: -0.057
TRMT10A (UniProt Q8TBZ6)	inactive: 0.003	inactive: -0.008	inactive: 0.095	inactive: -0.01	inactive: 0.09	inactive: -0.031	inactive: -0.012	inactive: 0.015	inactive: -0.021	inactive: -0.004	inactive: 0.042	inactive: 0.083	inactive: 0.031	inactive: -0.041	inactive: 0.001	inactive: 0.02	inactive: -0.047	inactive: 0.001	inactive: 0.012	inactive: 0.059
TSR2 (UniProt Q969E8)	inactive: 0.054	inactive: 0.012	inactive: 0.004	inactive: 0.035	inactive: 0.054	inactive: 0.025	inactive: -0.01	inactive: 0.035	inactive: -0.011	inactive: -0.037	inactive: -0.002	inactive: 0.009	inactive: 0.018	inactive: 0.006	inactive: -0.013	inactive: -0.02	inactive: -0.027	inactive: 0.004	inactive: -0.005	inactive: 0.01

Quoted from the results shown for reference:
Target	log2 fold change (alvocidib)	log2 fold change (Tubastatin A)	log2 fold change [1]	log2 fold change (defactinib)	log2 fold change [2]	log2 fold change (encorafenib)	log2 fold change [3]	log2 fold change (alisertib)	log2 fold change [4]	log2 fold change (gefitinib)	log2 fold change (lapatinib)	log2 fold change (pictilisib)	log2 fold change (crizotinib)	log2 fold change [5]	log2 fold change (duvelisib)	log2 fold change (gandotinib)	log2 fold change (tozasertib)	log2 fold change (doramapimod)	log2 fold change (bafetinib)	log2 fold change [6]
TSEN2 (UniProt Q8NCE0)	inactive: -0.071	inactive: -0.02	inactive: 0.026	inactive: -0.033	inactive: 0.028	inactive: -0.014	inactive: 0.077	inactive: 0.004	inactive: 0.028	inactive: -0.009	inactive: 0.006	inactive: 0.003	inactive: -0.085	inactive: -0.076	inactive: 0.017	inactive: 0.032	inactive: 0.039	inactive: 0.008	inactive: -0.024	inactive: 0.079
TSC2 isoform 4 (UniProt P49815)	inactive: -0.016	inactive: -0.082	inactive: -0.007	inactive: 0.007	inactive: 0.064	inactive: 0.028	inactive: -0.063	inactive: -0.087	inactive: 0.042	inactive: -0.019	inactive: -0.011	inactive: 0.025	inactive: -0.054	inactive: -0.058	inactive: 0.026	inactive: -0.035	inactive: 0.049	inactive: -0.061	inactive: -0.008	inactive: 0.089
